This passage reports binding results from paper PMC7271451.

Sequences of proteins named here, by UniProt entry; tags and fusion partners are left off. Residues count along the entry.
UniProt P40189, residues 23-918: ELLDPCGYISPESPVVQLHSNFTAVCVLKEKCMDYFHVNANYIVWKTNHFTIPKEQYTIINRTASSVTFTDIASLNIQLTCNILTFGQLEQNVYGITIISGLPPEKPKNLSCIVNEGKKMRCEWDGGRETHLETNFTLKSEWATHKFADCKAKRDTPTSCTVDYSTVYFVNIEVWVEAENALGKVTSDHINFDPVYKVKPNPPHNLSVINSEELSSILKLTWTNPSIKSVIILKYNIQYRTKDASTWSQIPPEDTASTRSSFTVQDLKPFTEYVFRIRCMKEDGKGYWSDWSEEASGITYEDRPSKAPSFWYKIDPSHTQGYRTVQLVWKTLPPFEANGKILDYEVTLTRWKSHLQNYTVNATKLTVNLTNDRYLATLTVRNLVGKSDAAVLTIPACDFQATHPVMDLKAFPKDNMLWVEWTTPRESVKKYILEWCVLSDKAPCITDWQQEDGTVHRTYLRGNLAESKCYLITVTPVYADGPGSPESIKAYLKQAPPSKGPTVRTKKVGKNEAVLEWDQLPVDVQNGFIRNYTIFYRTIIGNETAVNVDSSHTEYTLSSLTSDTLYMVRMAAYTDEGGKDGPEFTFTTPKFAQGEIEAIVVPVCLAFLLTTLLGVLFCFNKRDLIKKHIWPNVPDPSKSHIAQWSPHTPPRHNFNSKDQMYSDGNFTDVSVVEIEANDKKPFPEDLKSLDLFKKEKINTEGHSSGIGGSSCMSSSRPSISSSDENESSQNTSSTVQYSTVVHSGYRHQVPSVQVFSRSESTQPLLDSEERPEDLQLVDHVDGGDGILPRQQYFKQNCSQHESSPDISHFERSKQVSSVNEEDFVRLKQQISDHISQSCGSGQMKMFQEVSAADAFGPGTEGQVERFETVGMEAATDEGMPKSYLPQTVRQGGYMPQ
UniProt O00463: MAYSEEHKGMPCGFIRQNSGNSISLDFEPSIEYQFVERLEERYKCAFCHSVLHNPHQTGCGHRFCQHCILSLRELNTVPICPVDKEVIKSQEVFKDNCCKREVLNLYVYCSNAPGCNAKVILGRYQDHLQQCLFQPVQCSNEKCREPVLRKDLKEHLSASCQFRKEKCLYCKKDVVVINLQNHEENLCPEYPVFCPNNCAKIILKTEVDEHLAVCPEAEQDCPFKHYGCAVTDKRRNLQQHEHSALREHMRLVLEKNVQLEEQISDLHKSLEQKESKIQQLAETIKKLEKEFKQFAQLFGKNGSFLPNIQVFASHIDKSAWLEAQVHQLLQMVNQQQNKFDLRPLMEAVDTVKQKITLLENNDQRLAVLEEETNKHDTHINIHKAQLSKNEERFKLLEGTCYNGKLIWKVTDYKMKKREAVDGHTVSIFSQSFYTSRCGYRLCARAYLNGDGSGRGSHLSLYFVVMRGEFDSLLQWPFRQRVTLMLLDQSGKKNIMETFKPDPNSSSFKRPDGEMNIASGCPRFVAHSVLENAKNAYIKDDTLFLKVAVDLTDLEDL

These are yes or no findings as the source states them, for the method shown. Binding seen in cells or lysates may run through a third protein. Some results given as binding are weak or reduced against the parent protein; the word gives no strength.

The assay has as its target Glycoprotein 130 (IL-6 β receptor) (human (endogenous in HT-29)) (UniProt P40189). As to the kind of experiment: co-IP; endogenous proteins of HT-29 cells, with or without 5 mM NaB for 24 h; lysed in NP-40 buffer; primary antibodies on protein G agarose beads overnight at 4 °C; western blot. A general note: A western blot detects proteins with antibodies after separation by electrophoresis.

“Tumor necrosis factor receptor-associated factor 5 (from UniProt O00463 1-557)”: the binding result was “binds”.
